For one substance, binding results are on record in paper PMC10917059.

By UniProt entry, the sequences of proteins in these tests, tags left out. Where a name states a change or a piece, a line headed by the entry shows the natural chain unless it says otherwise.
UniProt Q7L0Q8: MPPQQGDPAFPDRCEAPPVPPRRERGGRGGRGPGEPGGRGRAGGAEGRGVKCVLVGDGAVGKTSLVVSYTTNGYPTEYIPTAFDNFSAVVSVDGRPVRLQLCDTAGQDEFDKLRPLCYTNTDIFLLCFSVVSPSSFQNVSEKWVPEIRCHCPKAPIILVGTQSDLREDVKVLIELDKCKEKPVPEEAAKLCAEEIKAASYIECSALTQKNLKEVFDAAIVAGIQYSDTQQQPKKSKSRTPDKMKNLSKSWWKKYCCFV

The assay has as its target GFP–ΔN-RhoU(48–258) (human) (UniProt Q7L0Q8). The assay is described as follows: co-IP; lysates of co-transfected COS7 cells, GFP-Trap agarose beads, 1 h at 4°C, 10 mM Tris-HCl pH 7.5, 150 mM NaCl, NP40; blots with anti-GFP and anti-Myc.

These are yes or no findings as the source states them, for the method shown. In cells and extracts the contact can be indirect. A result given as binding can be weak or reduced; the word gives no strength.

Take Myc–RhoU (from UniProt Q7L0Q8-1 1-258): the binding entry is listed as “binds”.
